According to paper PMC4594993:
Results are given in words; binding and its absence hold for the method and conditions named. In cells and extracts the contact can be indirect. Some binding calls cover weakened binding; strength is not graded here. Sequences can lack the tags named with a protein.

Target: T1, Flotillin-1-eGFP (human) (UniProt O75955)
T1 sequence: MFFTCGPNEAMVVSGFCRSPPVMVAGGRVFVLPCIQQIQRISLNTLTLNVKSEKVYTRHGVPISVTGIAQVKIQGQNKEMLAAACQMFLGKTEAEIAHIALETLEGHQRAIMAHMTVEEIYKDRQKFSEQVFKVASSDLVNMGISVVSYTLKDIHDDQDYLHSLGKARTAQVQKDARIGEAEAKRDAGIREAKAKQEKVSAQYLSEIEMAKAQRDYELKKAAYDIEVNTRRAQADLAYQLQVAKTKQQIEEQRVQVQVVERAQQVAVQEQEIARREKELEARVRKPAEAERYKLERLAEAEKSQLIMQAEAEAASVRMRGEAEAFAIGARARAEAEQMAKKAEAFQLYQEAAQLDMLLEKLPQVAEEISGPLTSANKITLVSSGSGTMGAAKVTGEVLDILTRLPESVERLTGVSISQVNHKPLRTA
Assay: FRET or BRET; FRET imaging in SMMC-7721 cells co-transfected with acceptor (CD147-dsRed1) and donor (Flotillin-1-eGFP); CoA and CoB from single-transfected donor and acceptor samples

binding: binds
Substance: CD98 (FRET partner of flotillin-1-eGFP) (from UniProt P08195-1 1-630)
